No constants are given. Whether binding was seen depends on the method and setting. A result given as binding can be weak or reduced; the word gives no strength.
Target: Cda4HA (C-terminally HA-tagged secreted Cda4) (Ustilago maydis)
Assay: pull-down; both purified

Question: For “maize antifungal protein 1 (AFP1), AFP1-His (from UniProt B4FUR2)”, which binding is on record?
Answer: binds
